# Experimental data: the supplement of paper PMC6411743
# ± gives the standard deviation of the averaged measurements. Some of the results follow.
# Key:
# Test in all cases: NP40-soluble protein abundance relative to vehicle (solubility fold change) (ratio); higher = more soluble protein in presence of GTP
# [1] = molecular target: T1, A0A0A0MSG2|J3KNW4 and related entries (UniProt Q14192)
# T1 sequence (whole entry): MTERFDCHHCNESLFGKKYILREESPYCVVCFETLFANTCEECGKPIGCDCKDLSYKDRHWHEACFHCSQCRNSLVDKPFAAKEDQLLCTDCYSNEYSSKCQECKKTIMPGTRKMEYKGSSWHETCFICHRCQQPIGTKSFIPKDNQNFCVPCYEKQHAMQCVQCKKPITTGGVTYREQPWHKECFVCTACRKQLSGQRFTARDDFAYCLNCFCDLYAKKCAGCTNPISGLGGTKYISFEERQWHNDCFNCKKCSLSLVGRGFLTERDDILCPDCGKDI
# In short: (§1)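 Eight concentrations, 0.1 to 10 mM, were tested on Jurkat crude lysate for 10 min at room temperature and then 3 min at 37 °C, in three independent experiments. The lysate was solubilised with 0.8% NP40 and benzonase, ultracentrifuged, and the supernatant TMT-labelled for LC-MS/MS. Each value is the fold change against the detergent-processed vehicle in its own replicate, from vsn-normalised intensities.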
# A0A0A0MTG4|P82094 = molecular target: T2, A0A0A0MTG4|P82094 (UniProt P82094)
# T2 sequence (whole entry): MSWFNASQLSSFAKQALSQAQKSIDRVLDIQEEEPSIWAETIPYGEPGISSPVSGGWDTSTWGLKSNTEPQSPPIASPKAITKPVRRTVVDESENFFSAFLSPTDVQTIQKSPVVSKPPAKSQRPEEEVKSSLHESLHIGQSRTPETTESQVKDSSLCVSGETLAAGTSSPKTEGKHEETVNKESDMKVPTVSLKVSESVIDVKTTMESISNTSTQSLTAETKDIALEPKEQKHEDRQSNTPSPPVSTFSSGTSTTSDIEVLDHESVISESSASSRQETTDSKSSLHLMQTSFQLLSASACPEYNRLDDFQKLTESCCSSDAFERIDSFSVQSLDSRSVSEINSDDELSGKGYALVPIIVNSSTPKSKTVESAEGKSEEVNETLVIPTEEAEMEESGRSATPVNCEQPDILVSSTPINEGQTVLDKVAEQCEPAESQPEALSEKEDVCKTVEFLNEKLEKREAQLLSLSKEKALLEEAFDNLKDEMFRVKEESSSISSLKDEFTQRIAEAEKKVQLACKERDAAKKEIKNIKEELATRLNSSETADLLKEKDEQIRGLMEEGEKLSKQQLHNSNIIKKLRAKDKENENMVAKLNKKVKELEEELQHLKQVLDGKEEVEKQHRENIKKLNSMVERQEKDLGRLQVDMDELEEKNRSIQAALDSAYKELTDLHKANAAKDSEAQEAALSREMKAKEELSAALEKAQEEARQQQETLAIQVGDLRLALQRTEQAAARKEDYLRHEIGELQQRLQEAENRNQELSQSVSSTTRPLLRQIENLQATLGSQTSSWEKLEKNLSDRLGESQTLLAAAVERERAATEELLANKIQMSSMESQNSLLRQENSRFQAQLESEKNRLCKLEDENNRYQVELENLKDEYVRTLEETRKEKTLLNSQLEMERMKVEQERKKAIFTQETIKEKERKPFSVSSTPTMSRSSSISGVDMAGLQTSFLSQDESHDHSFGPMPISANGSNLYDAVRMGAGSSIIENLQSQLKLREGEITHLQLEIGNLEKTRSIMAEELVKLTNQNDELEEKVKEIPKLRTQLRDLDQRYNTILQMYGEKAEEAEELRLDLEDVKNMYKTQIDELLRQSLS
# In short: as §1
# A0A0A6YY96|P48200 = molecular target: T3, A0A0A6YY96|P48200 (UniProt P48200)
# T3 sequence (whole entry): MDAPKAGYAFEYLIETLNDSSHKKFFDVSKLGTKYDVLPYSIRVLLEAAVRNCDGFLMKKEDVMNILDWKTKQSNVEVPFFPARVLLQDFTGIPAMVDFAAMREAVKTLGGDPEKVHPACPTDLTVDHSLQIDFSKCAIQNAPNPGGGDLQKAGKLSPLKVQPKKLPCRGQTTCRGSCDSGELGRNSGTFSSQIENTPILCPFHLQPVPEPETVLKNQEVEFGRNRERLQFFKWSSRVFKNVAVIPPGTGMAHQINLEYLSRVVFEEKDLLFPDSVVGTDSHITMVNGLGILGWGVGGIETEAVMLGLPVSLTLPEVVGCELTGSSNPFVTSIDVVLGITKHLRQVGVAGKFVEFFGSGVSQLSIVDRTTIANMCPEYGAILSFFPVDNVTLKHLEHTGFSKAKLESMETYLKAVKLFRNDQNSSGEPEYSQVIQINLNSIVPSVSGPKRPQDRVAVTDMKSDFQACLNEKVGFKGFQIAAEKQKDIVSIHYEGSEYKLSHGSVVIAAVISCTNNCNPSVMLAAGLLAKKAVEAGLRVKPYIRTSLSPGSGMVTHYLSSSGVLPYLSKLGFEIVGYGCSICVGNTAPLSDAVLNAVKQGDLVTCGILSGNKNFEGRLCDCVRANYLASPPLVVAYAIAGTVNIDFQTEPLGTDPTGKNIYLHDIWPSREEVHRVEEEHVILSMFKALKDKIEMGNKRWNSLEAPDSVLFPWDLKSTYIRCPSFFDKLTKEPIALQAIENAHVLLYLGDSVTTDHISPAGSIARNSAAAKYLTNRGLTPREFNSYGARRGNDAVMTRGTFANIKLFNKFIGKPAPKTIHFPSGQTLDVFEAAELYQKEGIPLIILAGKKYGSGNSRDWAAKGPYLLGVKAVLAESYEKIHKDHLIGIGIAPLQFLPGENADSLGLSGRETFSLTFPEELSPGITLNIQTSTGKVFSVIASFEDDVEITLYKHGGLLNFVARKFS
# In short: as §1
# [2] = molecular target: T4, A0A0C4DFN1|Q8IWA4 and related entries (UniProt Q8IWA4)
# T4 sequence (whole entry): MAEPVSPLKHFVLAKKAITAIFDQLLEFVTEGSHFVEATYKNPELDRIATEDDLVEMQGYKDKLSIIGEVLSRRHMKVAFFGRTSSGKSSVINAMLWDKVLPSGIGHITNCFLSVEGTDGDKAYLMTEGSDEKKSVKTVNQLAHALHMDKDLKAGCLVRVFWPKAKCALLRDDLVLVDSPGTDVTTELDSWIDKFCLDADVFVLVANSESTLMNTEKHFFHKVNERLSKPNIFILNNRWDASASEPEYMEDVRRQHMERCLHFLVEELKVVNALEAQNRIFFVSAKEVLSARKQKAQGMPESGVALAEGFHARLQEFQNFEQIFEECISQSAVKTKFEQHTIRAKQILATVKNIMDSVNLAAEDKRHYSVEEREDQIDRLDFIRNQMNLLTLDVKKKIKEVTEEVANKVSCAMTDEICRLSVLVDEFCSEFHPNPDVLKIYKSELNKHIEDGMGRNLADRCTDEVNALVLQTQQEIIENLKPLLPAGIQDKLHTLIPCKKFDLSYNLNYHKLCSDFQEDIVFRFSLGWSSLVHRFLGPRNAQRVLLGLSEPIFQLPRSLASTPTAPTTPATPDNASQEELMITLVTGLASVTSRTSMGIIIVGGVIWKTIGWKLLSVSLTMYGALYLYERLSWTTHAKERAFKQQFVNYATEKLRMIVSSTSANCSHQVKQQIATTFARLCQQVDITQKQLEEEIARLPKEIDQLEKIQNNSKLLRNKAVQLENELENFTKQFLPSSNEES
# In short: as §1
compound,measurement,setting,value
Nc1nc2c(ncn2[C@@H]2O[C@H](COP(=O)(O)OP(=O)(O)OP(=O)(O)O)[C@@H](O)[C@H]2O)c(=O)[nH]1 [guanosine triphosphate],NP40-soluble protein abundance,[1]; concentration: 4mM,1.2 ± 0.27
same,NP40-soluble protein abundance,[1]; concentration: 6mM,1.13 ± 0.089
same,NP40-soluble protein abundance,[1]; concentration: 8mM,1.13 ± 0.19
same,NP40-soluble protein abundance,[1]; concentration: 10mM,1.11 ± 0.22
same,NP40-soluble protein abundance,A0A0A0MTG4|P82094; concentration: 0.1mM,0.953 ± 0.043
same,NP40-soluble protein abundance,A0A0A0MTG4|P82094; concentration: 0.5mM,0.939 ± 0.086
same,NP40-soluble protein abundance,A0A0A0MTG4|P82094; concentration: 1mM,0.947 ± 0.077
same,NP40-soluble protein abundance,A0A0A0MTG4|P82094; concentration: 2mM,0.913 ± 0.096
same,NP40-soluble protein abundance,A0A0A0MTG4|P82094; concentration: 4mM,0.91 ± 0.057
same,NP40-soluble protein abundance,A0A0A0MTG4|P82094; concentration: 6mM,0.916 ± 0.07
same,NP40-soluble protein abundance,A0A0A0MTG4|P82094; concentration: 8mM,0.933 ± 0.033
same,NP40-soluble protein abundance,A0A0A0MTG4|P82094; concentration: 10mM,0.948 ± 0.069
same,NP40-soluble protein abundance,A0A0A6YY96|P48200; concentration: 0.1mM,0.978 ± 0.091
same,NP40-soluble protein abundance,A0A0A6YY96|P48200; concentration: 0.5mM,0.968 ± 0.095
same,NP40-soluble protein abundance,A0A0A6YY96|P48200; concentration: 1mM,0.922 ± 0.062
same,NP40-soluble protein abundance,A0A0A6YY96|P48200; concentration: 2mM,0.946 ± 0.083
same,NP40-soluble protein abundance,A0A0A6YY96|P48200; concentration: 4mM,0.939 ± 0.064
same,NP40-soluble protein abundance,A0A0A6YY96|P48200; concentration: 6mM,0.929 ± 0.076
same,NP40-soluble protein abundance,A0A0A6YY96|P48200; concentration: 8mM,0.906 ± 0.013
same,NP40-soluble protein abundance,A0A0A6YY96|P48200; concentration: 10mM,0.943 ± 0.039
same,NP40-soluble protein abundance,[2]; concentration: 0.1mM,1.04 ± 0.019
same,NP40-soluble protein abundance,[2]; concentration: 0.5mM,1.02 ± 0.061
same,NP40-soluble protein abundance,[2]; concentration: 1mM,0.981 ± 0.019
same,NP40-soluble protein abundance,[2]; concentration: 2mM,0.941 ± 0.018
same,NP40-soluble protein abundance,[2]; concentration: 4mM,0.929 ± 0.065
same,NP40-soluble protein abundance,[2]; concentration: 6mM,0.948 ± 0.072

# Copied from above for reference:
compound,measurement,setting,value
Nc1nc2c(ncn2[C@@H]2O[C@H](COP(=O)(O)OP(=O)(O)OP(=O)(O)O)[C@@H](O)[C@H]2O)c(=O)[nH]1 [guanosine triphosphate],NP40-soluble protein abundance,A0A0A6YY96|P48200; concentration: 0.1mM,0.978 ± 0.091
same,NP40-soluble protein abundance,A0A0A6YY96|P48200; concentration: 0.5mM,0.968 ± 0.095
